# Data as given in PubChem BioAssay AID1159584 (Peter MacCallum Cancer Centre, 2016).
# Aim: 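Genes that CDH1-null MCF10A cells selectively depend on to survive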 (primary screen)
# Cells: human MCF10A breast epithelial cells, parental and CDH1-null
# Reagent: siRNA against human genes
# Read-out: 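Cell viability by CellTiter-Glo ATP luminescence, each line scaled to the mean of mock wells across plates, then CDH1-null over parental ratio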
# Direction: CDH1-null / parental viability ratio: higher = CDH1-null cells survive relatively better than parental; CDH1-null viability vs mock: higher = more viable CDH1-null cells; parental viability vs mock: higher = more viable parental cells
# The deposit covers about 18,000 reagents; below is an unselected part. No sequences are given here. The record does not give: the amount of reagent, the time to read-out.
gene knocked down,CDH1-null / parental viability ratio,CDH1-null viability vs mock (fraction of mock),parental viability vs mock (fraction of mock)
CD3E,0.93,0.78,0.84
PYY,0.6,0.34,0.57
PIERCE1,1.43,0.9,0.63
METTL13,0.91,0.96,1.05
CHIA,1.05,1.07,1.02
ZFYVE27,0.59,0.48,0.81
SF3A1,1.17,0.34,0.29
C20orf204,0.9,0.47,0.52
CTU1,1.21,1.04,0.86
NCOA1,0.88,0.71,0.81
ZNF347,0.61,0.59,0.97
TMEM14C,1.1,0.75,0.68
GFPT1,1.03,0.93,0.9
ZNF514,0.88,0.69,0.78
ARMH4,0.88,0.72,0.82
COL6A2,1.32,1.08,0.82
GCN1,0.98,0.86,0.88
RITA1,0.81,0.76,0.94
GNAI2,1.07,0.91,0.85
TRIM68,0.7,0.46,0.66
BAGE3,0.68,0.32,0.47
FAM47C,0.96,0.81,0.84
DNAJB3P,1.05,0.92,0.88
ALKBH5,0.78,0.64,0.82
TMEM270,1,1,1
CCAR1,1.04,0.8,0.77
TCTA,0.93,0.75,0.81
LCA5L,0.69,0.66,0.95
PTPRK,1.05,0.86,0.82
DPEP2,1.13,0.8,0.71
PAX2,0.9,0.86,0.96
TAAR6,0.83,0.88,1.06
LOC155060,0.75,0.64,0.85
TSHR,0.97,0.86,0.89
ANKFY1,0.78,0.62,0.79
FRG1,0.79,0.73,0.92
LAMC2,0.82,0.6,0.73
GLT1D1,0.89,0.98,1.1
AMY2B,0.91,0.73,0.8
PER1,1.27,0.9,0.71
COX4I1,0.98,0.8,0.82
COL4A2,0.96,0.77,0.8
MPHOSPH6,0.87,0.78,0.9
PSG3,0.94,0.82,0.87
PTCD1,1.37,1,0.73
NME1-NME2,1.5,0.63,0.42
BEX2,0.81,0.5,0.62
NEK7,0.97,0.89,0.92
ROR1,1.05,0.88,0.84
SH3GLB1,1.18,0.52,0.44
CDCA7,1.05,0.92,0.88
ZNF547,0.87,0.48,0.55
C9orf152,0.97,0.86,0.89
IL2,1.22,1.06,0.87
H4C3,1.04,0.52,0.5
MTMR11,1.09,0.72,0.66
ZNF683,0.98,0.9,0.92
ADAM19,1.23,1.03,0.84
GEMIN8,1.06,0.89,0.84
IL17B,0.88,0.57,0.65
RFPL4B,1.01,0.88,0.87
CZIB,0.86,0.66,0.77
FASTK,1.49,1.13,0.76
SIRT7,1.28,0.74,0.58
RPL27,1.45,0.29,0.2
EPCIP,1.19,0.81,0.68
PDIA2,1.13,1.19,1.05
CYP2A13,0.73,0.56,0.77
TGM6,1.18,1.04,0.88
CDR2,0.91,0.42,0.46
PRKG1,0.99,0.82,0.83
DRC4,0.88,0.67,0.76
SMDT1,1.12,0.76,0.68
LSM5,1.4,0.74,0.53
NRG1,0.68,0.54,0.79
SH3RF3,0.96,0.65,0.68
PATE2,0.96,0.88,0.92
OR51F2,0.85,0.64,0.75
JAGN1,1.25,0.7,0.56
RNF113B,0.83,0.5,0.6
OPA1,1.35,0.84,0.62
HYLS1,1.05,0.44,0.42
CCDC87,1.04,0.79,0.76
COPB2,1.11,0.2,0.18
RMC1,1.29,1.34,1.04
THEMIS,1.06,0.87,0.82
RMP24,0.92,0.6,0.65
